# Results: article PMC4637209
# Sequences of proteins named here, by UniProt entry; tags and fusion partners are left off.
# UniProt P56524: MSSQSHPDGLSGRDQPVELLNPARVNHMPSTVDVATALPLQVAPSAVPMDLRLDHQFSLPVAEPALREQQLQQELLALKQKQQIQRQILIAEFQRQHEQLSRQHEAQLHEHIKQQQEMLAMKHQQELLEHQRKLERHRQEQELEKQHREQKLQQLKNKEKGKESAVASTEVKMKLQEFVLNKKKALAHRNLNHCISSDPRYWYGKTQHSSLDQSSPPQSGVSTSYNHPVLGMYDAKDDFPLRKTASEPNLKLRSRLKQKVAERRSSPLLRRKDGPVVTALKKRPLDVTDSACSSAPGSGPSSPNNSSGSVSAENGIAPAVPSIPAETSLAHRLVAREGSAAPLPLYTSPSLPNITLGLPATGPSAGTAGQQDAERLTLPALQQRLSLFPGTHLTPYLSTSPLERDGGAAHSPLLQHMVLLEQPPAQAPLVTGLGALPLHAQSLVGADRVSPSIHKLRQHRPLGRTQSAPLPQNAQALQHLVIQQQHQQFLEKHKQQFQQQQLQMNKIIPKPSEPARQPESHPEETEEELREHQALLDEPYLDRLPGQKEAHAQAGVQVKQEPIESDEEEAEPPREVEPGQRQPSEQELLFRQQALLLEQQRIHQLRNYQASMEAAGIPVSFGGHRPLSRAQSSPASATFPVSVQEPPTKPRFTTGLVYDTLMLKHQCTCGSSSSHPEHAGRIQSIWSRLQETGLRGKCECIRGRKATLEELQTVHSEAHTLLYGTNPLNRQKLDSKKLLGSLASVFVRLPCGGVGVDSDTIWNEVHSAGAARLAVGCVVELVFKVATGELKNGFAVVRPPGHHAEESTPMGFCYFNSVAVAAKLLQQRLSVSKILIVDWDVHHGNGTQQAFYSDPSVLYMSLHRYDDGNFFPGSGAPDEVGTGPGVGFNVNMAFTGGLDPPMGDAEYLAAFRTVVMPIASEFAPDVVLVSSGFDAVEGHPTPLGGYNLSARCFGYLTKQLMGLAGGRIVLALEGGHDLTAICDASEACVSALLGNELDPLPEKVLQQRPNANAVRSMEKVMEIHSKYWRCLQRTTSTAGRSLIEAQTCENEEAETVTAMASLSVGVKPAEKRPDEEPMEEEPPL
# UniProt Q6NZM9: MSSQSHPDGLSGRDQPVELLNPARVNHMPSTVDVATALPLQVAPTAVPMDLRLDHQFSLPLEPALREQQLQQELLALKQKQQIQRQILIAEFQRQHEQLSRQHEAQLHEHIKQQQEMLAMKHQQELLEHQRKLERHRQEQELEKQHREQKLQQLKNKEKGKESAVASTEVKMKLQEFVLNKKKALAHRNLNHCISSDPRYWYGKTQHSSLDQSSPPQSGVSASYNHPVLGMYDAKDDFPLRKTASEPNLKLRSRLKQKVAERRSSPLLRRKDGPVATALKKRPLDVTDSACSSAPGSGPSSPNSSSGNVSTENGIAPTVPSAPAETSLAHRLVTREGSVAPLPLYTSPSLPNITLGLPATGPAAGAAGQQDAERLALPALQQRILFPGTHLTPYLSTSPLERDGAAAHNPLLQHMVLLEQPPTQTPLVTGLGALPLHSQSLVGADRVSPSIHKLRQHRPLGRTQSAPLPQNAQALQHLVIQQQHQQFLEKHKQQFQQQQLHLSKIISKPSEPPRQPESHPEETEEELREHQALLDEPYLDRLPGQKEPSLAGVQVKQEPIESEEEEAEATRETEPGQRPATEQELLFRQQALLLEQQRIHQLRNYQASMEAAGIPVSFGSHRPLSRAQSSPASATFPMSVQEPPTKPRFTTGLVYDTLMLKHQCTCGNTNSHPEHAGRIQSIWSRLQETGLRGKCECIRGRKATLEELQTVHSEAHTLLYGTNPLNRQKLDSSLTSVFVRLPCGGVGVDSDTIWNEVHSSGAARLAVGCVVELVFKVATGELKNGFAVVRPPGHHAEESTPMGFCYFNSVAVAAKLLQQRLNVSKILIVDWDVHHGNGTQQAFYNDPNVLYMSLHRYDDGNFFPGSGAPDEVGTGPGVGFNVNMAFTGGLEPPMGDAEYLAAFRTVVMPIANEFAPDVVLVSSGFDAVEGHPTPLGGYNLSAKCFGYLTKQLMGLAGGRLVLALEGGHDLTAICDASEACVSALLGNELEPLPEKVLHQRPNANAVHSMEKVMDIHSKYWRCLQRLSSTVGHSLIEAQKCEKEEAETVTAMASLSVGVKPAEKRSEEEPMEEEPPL
# Results are given in words; binding and its absence hold for the method and conditions named. Binding seen in cells or lysates may run through a third protein. Some results given as binding are weak or reduced against the parent protein; the word gives no strength. For some assays here: Tags and fused reporters may be left off the sequences shown.
# T1: microtubule-associated protein 1S (MAP1S), endogenous in mouse brain tissue and N2a cells (mouse (endogenous in brain tissue and N2a)) (UniProt Q8C052)
# T1 sequence: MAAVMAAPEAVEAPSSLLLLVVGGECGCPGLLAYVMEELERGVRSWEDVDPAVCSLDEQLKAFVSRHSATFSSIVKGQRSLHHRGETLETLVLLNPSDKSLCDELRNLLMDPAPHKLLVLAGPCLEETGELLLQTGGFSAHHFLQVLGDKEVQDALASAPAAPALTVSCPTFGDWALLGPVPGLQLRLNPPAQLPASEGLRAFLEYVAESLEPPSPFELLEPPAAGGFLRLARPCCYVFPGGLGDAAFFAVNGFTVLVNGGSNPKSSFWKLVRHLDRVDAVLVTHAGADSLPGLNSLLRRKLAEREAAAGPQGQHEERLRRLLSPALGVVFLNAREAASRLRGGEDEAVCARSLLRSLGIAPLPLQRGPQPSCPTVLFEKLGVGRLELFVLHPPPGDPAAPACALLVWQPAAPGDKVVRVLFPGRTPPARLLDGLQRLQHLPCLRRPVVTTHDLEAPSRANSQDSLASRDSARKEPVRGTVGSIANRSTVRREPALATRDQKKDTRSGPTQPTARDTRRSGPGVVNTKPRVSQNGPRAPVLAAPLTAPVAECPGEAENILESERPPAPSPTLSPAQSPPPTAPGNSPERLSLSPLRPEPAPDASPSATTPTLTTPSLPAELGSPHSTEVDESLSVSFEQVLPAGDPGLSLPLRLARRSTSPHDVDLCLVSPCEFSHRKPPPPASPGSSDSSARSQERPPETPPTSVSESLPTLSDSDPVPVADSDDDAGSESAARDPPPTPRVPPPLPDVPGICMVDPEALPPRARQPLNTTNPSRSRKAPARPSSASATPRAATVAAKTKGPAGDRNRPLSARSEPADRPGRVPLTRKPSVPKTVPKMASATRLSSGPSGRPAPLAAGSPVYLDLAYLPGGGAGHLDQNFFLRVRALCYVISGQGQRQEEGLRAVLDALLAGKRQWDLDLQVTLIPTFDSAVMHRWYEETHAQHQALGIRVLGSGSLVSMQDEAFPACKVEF
# B1: HA-tagged MAP1S R653-Q855 fragment, HDAC4-binding domain (HA-HBD) (domain or fragment, UniProt Q66K74 653-855)
# chain: RLSLSPLRGGEAGPDASPTVTTPTVTTPSLPAEVGSPHSTEVDESLSVSFEQVLPPSAPTSEAGLSLPLRGPRARRSASPHDVDLCLVSPCEFEHRKAVPMAPAPASPGSSNDSSARSQERAGGLGAEETPPTSVSESLPTLSDSDPVPLAPGAADSDEDTEGFGVPRHDPLPDPLKVPPPLPDPSSICMVDPEMLPPKTARQ
# Legend:
# [1] = biological target: T1, microtubule-associated protein 1S (MAP1S), endogenous in mouse brain tissue and N2a cells (mouse (endogenous in brain tissue and N2a)); assay: co-IP; lysates from brain tissues of wild-type and MAP1S-/- mice or from N2a cells, endogenous proteins, precipitated with antibody against HDAC4 or MAP1S or IgG control
# [2] = biological target: histone deacetylase 4 (HDAC4), endogenous in HeLa cells (human (endogenous in HeLa)) (UniProt P56524); assay: co-IP; competition: equal amounts of lysates from HeLa cells expressing control HA, HBD or HA-HBDΔ, precipitated with HDAC4-specific antibody; endogenous MAP1S blotted and quantified
molecule,measurement,setting,value
"histone deacetylase 4 (HDAC4), endogenous in mouse brain tissue and N2a cells (from UniProt Q6NZM9 1-1076) (enzyme)",binding,[1],binds
B1,binding,[2],binds
